Laboratory results as given in patent publication EP0600866B1, “COMPOSITIONS AND METHODS FOR IDENTIFYING BIOLOGICALLY ACTIVE MOLECULES” (CHIRON CORPORATION, priority 1990, dated 1997).
At least one peptide structure holds a part that was inferred or is arguable (an end, a ring closure or a residue). No end group written: not given here.

System: streptavidin
Experiment: Inhibition of streptavidin binding by a synthesized consensus-sequence peptide
Conditions: synthesized peptide with consensus sequence, tested as in the biopanning

For LNHPMDNRLHG [Isolate I00006], which “inhibition of streptavidin binding” value is on record?
Its value is “significantly inhibit”.
